Source: paper PMC7031079, “ATBS1-INTERACTING FACTOR 2 negatively regulates dark- and brassinosteroid-induced leaf senescence through interactions with INDUCER OF CBF EXPRESSION 1” (Journal of Experimental Botany, 2019)

T1: full-length protein of ICE1 (ICE1FL-pGBKT7) (Arabidopsis thaliana) (UniProt Q9LSE2)
T1 sequence: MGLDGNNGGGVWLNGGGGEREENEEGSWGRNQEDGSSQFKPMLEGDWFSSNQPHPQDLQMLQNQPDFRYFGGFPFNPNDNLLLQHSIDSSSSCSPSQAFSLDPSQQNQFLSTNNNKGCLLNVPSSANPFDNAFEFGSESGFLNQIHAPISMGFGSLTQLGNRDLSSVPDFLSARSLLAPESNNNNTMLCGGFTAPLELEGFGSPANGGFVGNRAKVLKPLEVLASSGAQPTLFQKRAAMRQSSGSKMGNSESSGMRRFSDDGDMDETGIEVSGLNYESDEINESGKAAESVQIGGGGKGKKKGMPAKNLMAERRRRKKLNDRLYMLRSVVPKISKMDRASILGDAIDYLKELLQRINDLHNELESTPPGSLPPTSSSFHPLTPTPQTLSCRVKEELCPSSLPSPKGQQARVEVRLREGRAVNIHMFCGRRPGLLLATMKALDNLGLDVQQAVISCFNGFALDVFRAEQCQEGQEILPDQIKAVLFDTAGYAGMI

B1: AIF2FL-nYFP (natural protein, Arabidopsis thaliana, UniProt Q9C8Z9 1-221, looked up)
chain: MASLISDIEPPTSTTSDLVRRKKRSSASSAASSRSSASSVSGEIHARWRSEKQQRIYSAKLFQALQQVRLNSSASTSSSPTAQKRGKAVREAADRALAVSARGRTLWSRAILANRIKLKFRKQRRPRATMAIPAMTTVVSSSSNRSRKRRVSVLRLNKKSIPDVNRKVRVLGRLVPGCGKQSVPVILEEATDYIQALEMQVRAMNSLVQLLSSYGSAPPPI

What was measured:
[1] = target: T1, full-length protein of ICE1 (ICE1FL-pGBKT7) (Arabidopsis thaliana); test: two-hybrid; pGBKT7 and pGADT7 constructs co-transformed into S. cerevisiae AH109; beta-galactosidase activity with chlorophenol red-beta-D-galactopyranoside as substrate
[2] = target: C-terminal-deleted ICE1, myc-fused (ICE1dC-myc) (Arabidopsis thaliana); test: co-IP; co-infiltrated tobacco (N. benthamiana) leaves; total proteins immunoprecipitated with anti-myc antibody on Protein G magnetic beads; blots with anti-GFP and anti-myc
[3] = target: N-terminal-deleted ICE1, myc-fused (ICE1dN-myc) (Arabidopsis thaliana); test: as above

Molecule | binding [1] | binding [2] | binding [3]
C-terminal-deleted AIF2 (AIF2dC-pGADT7) (Arabidopsis thaliana) (domain or fragment) | no binding |  | 
B1 |  | no binding | binds

No constants are given. Whether binding was seen depends on the method and setting. For part of these data: In cells and extracts the contact can be indirect. For part of these data: Binding can be weak; no strength is given. For part of these data: Tags and fused reporters may be left off the sequences shown.
